Results are given in words; binding and its absence hold for the method and conditions named. Binding seen in cells or lysates may run through a third protein. Some entries that bind do so weakly or less than the wild type. For some assays here: Tags and fused reporters may be left off the sequences shown.
Assays:
[1] = molecular target: T1, Myc-DRAK1 (death-associated protein kinase-related apoptosis-inducing kinase 1) (UniProt Q9UEE5); experiment: co-IP; 293T cells transfected with Myc-DRAK1, HA-CUL3 and Flag-SPOP; lysed after 36 h in IP buffer (50 mM Tris pH 7.4, 150 mM NaCl, 1% Triton X-100, 0.5% sodium deoxycholate, 2 mM EDTA, 10% glycerol); antibody overnight at 4 °C, Dynabeads; immunoblot
T1 sequence: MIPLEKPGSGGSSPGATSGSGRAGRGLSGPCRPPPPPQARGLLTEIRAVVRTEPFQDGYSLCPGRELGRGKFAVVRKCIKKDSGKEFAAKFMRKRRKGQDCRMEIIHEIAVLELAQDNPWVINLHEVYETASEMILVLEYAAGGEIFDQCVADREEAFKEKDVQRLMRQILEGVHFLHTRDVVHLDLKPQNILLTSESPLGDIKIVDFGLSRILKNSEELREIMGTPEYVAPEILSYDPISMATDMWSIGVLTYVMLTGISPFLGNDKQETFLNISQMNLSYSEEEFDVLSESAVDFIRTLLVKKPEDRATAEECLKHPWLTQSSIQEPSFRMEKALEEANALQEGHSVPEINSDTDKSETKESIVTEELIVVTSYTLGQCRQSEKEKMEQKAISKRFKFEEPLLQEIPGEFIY

The chains behind the UniProt entries cited, without tags or fusion partners.
UniProt O43791: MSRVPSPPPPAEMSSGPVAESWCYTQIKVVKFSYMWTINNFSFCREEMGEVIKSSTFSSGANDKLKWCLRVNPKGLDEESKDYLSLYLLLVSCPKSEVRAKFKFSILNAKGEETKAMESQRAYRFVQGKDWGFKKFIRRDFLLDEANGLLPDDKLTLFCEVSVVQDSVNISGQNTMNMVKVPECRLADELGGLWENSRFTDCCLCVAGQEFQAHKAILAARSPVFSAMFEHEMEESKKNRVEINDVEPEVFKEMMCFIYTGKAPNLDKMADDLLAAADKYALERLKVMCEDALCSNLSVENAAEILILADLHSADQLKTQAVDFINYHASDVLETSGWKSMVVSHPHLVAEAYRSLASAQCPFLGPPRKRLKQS

[2] = molecular target: T2, endogenous DRAK1 (human (endogenous in HeLa)) (UniProt Q9UEE5); experiment: co-IP; endogenous proteins in HeLa and paclitaxel-resistant HeLa/PTX cell lysates; IP buffer, antibody overnight at 4 °C, Dynabeads; immunoblot
T2 sequence: T1 sequence

binding [2] | Substance | binding [1]
 | Flag-SPOP (speckle-type POZ protein) (from UniProt O43791 1-374) | binds
binds | endogenous SPOP (from UniProt O43791 1-374) | 
